This is an account of results in publication PMC5886150.

Sequences of proteins named here, by UniProt entry; tags and fusion partners are left off. Residues count along the entry.
UniProt P04406: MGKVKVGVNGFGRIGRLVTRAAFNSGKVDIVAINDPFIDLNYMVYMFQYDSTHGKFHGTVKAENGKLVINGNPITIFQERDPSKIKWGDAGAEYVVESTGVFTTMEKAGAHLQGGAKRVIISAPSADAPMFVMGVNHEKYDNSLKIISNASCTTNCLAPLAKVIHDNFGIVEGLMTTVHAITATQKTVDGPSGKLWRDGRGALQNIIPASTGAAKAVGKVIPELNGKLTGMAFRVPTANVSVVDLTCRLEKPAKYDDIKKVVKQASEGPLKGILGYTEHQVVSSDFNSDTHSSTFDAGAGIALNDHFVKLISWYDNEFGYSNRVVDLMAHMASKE
UniProt P10809, residues 27-573: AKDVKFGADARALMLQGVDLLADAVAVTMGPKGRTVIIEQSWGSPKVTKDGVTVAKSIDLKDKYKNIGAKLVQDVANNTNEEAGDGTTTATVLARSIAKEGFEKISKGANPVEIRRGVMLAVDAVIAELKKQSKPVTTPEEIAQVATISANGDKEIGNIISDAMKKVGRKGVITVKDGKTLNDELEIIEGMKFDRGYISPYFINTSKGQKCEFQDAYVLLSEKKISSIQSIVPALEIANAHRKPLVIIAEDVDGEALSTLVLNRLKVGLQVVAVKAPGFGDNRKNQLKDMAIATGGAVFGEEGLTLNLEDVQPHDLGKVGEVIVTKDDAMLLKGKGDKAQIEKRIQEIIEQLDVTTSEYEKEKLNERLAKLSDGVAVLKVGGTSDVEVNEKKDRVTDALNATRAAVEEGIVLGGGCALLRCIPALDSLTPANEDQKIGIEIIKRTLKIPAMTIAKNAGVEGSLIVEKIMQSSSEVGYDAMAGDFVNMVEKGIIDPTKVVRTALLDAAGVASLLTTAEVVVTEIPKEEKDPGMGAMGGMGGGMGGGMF
UniProt P11142: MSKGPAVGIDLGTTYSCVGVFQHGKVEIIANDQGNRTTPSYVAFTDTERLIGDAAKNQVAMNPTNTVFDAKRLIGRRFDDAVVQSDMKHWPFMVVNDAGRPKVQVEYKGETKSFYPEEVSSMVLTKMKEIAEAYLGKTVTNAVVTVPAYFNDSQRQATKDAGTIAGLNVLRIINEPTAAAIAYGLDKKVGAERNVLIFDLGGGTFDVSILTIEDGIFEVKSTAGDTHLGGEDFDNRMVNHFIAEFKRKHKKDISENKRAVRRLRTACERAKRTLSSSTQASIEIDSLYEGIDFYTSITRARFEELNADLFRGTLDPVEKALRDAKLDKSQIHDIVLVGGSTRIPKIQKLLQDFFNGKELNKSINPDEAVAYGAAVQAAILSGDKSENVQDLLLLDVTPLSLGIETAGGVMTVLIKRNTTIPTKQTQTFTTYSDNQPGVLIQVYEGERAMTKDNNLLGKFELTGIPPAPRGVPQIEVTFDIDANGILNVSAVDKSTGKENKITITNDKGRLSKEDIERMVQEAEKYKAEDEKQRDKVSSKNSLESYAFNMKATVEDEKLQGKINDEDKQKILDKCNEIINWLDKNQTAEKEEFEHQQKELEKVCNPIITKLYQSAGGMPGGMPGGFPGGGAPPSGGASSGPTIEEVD
UniProt Q5VTE0: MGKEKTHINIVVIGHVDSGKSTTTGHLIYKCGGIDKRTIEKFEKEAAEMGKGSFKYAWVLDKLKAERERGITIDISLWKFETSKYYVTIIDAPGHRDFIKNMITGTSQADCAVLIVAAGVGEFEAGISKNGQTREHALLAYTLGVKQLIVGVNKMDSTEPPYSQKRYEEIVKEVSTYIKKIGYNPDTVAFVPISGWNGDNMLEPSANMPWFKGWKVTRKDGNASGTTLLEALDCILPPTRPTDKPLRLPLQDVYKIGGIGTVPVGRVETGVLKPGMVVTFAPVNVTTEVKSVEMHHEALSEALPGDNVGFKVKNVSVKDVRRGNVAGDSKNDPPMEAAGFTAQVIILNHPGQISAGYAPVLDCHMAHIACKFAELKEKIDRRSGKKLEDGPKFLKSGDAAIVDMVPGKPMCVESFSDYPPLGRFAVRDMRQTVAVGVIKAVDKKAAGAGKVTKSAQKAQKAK
UniProt P11940: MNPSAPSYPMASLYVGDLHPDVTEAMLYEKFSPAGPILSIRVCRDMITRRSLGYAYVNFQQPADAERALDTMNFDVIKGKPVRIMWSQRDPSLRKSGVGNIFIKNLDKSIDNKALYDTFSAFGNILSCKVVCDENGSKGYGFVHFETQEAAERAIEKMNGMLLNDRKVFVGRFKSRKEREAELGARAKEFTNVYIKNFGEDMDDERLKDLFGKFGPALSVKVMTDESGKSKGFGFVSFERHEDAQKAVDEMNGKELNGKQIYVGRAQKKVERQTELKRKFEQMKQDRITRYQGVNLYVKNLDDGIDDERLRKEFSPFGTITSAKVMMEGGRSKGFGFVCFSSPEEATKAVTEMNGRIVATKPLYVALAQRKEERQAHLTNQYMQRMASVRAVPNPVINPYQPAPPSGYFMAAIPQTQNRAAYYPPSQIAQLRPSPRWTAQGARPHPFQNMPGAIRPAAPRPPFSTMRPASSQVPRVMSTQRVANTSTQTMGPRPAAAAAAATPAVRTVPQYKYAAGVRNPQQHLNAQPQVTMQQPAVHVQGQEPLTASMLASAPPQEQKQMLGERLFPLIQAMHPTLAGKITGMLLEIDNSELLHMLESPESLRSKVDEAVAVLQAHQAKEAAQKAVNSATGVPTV
UniProt P00441: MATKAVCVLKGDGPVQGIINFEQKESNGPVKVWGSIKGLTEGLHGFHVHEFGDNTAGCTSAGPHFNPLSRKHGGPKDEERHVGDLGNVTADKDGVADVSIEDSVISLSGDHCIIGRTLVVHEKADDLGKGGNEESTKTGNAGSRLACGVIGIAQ
UniProt Q32P51: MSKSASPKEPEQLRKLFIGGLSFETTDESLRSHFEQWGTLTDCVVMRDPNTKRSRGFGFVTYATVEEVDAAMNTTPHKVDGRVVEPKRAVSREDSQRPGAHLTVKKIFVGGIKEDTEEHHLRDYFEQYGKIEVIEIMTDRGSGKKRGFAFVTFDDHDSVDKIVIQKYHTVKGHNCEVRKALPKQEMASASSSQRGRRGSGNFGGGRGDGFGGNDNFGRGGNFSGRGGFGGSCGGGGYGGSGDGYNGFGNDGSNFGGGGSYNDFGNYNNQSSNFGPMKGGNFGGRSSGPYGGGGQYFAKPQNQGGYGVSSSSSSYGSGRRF

Results are given in words; binding and its absence hold for the method and conditions named. In cells and extracts the contact can be indirect. These calls come from enrichment with a bait or labelling near it, and not all partners need be listed.

One experiment has as its target DJ-1 C106A (UniProt Q99497). Briefly: affinity purification with mass spectrometry; DJ-1 HMW complexes from KD1 cells expressing DJ-1 C106A or DJ-1 C106DD, compared by the same LC-MS/MS technique (fold change C106DD/C106A).
The target in a further experiment is DJ-1 C106DD (UniProt Q99497). The description is as above.
Experiment [1] has as its target DJ-1 (endogenous, SH-SY5Y cells) (human (endogenous in SH-SY5Y)) (UniProt Q99497). Briefly: affinity purification with mass spectrometry; polyclonal goat anti DJ-1 antibody covalently linked to Dynabeads M-270 Epoxy; SH-SY5Y lysate (1% NP40, 150 mM sodium chloride, pH 7.5) concentrated on 100 K filters to remove proteins less than 100 kDa; 1 h at 4 °C; label-free quantitative LC-MS/MS.

As to “Glyceraldehyde 3-phosphate dehydrogenase (from UniProt P04406 1-335)”, the binding result (with DJ-1 C106A; in the experiment with DJ-1 C106DD; in experiment [1]) was “binds” in each case.
On to Hsp60 (from UniProt P10809 27-573), for which, in experiment [1], the binding result is “binds”.
hsc70 (from UniProt P11142 1-646): the binding entry in the experiment with DJ-1 C106A and with DJ-1 C106DD was “binds” each time.
On to “putative elongation factor 1 alpha like 3 (from UniProt Q5VTE0 1-462)”, for which, in experiment [1], the binding result is listed as “binds”.
Consider “polyadenylate-binding protein 1 (from UniProt P11940 1-636)”, for which the binding entry in the experiment with DJ-1 C106A and in the experiment with DJ-1 C106DD was “binds” in each case.
As to hnRNP K (from UniProt P61978 1-463), the binding result with DJ-1 C106A and with DJ-1 C106DD was “binds” in each case.
With SOD1 (from UniProt P00441 1-154), in experiment [1], the binding entry is “binds”.
With “heterogeneous ribonucleoprotein A1 like 2 (from UniProt Q32P51 1-320)”, the binding result in the experiment with DJ-1 C106A and with DJ-1 C106DD was “binds” each time.

B1: hnRNP L (protein, UniProt P14866 1-589)
chain: MSRRLLPRAEKRRRRLEQRQQPDEQRRRSGAMVKMAAAGGGGGGGRYYGGGSEGGRAPKRLKTDNAGDQHGGGGGGGGGAGAAGGGGGGENYDDPHKTPASPVVHIRGLIDGVVEADLVEALQEFGPISYVVVMPKKRQALVEFEDVLGACNAVNYAADNQIYIAGHPAFVNYSTSQKISRPGDSDDSRSVNSVLLFTILNPIYSITTDVLYTICNPCGPVQRIVIFRKNGVQAMVEFDSVQSAQRAKASLNGADIYSGCCTLKIEYAKPTRLNVFKNDQDTWDYTNPNLSGQGDPGSNPNKRQRQPPLLGDHPAEYGGPHGGYHSHYHDEGYGPPPPHYEGRRMGPPVGGHRRGPSRYGPQYGHPPPPPPPPEYGPHADSPVLMVYGLDQSKMNCDRVFNVFCLYGNVEKVKFMKSKPGAAMVEMADGYAVDRAITHLNNNFMFGQKLNVCVSKQPAIMPGQSYGLEDGSCSYKDFSESRNNRFSTPEQAAKNRIQHPSNVLHFFNAPLEVTEENFFEICDELGVKRPSSVKVFSGKSERSSSGLLEWESKSDALETLGFLNHYQMKNPNGPYPYTLKLCFSTAQHAS
Turning to B1, the binding entry in the experiment with DJ-1 C106A and with DJ-1 C106DD was “binds” in each case.

B2: hnRNP M (protein, UniProt P52272 1-730)
chain: MAAGVEAAAEVAATEIKMEEESGAPGVPSGNGAPGPKGEGERPAQNEKRKEKNIKRGGNRFEPYANPTKRYRAFITNIPFDVKWQSLKDLVKEKVGEVTYVELLMDAEGKSRGCAVVEFKMEESMKKAAEVLNKHSLSGRPLKVKEDPDGEHARRAMQKVMATTGGMGMGPGGPGMITIPPSILNNPNIPNEIIHALQAGRLGSTVFVANLDYKVGWKKLKEVFSMAGVVVRADILEDKDGKSRGIGTVTFEQSIEAVQAISMFNGQLLFDRPMHVKMDERALPKGDFFPPERPQQLPHGLGGIGMGLGPGGQPIDANHLNKGIGMGNIGPAGMGMEGIGFGINKMGGMEGPFGGGMENMGRFGSGMNMGRINEILSNALKRGEIIAKQGGGGGGGSVPGIERMGPGIDRLGGAGMERMGAGLGHGMDRVGSEIERMGLVMDRMGSVERMGSGIERMGPLGLDHMASSIERMGQTMERIGSGVERMGAGMGFGLERMAAPIDRVGQTIERMGSGVERMGPAIERMGLSMERMVPAGMGAGLERMGPVMDRMATGLERMGANNLERMGLERMGANSLERMGLERMGANSLERMGPAMGPALGAGIERMGLAMGGGGGASFDRAIEMERGNFGGSFAGSFGGAGGHAPGVARKACQIFVRNLPFDFTWKMLKDKFNECGHVLYADIKMENGKSKGCGVVKFESPEVAERACRMMNGMKLSGREIDVRIDRNA
For the molecule B2, the binding entry with DJ-1 C106A and with DJ-1 C106DD was “binds” in each case.

B3: hnRNP R (protein, UniProt O43390 1-633)
chain: MANQVNGNAVQLKEEEEPMDTSSVTHTEHYKTLIEAGLPQKVAERLDEIFQTGLVAYVDLDERAIDALREFNEEGALSVLQQFKESDLSHVQNKSAFLCGVMKTYRQREKQGSKVQESTKGPDEAKIKALLERTGYTLDVTTGQRKYGGPPPDSVYSGVQPGIGTEVFVGKIPRDLYEDELVPLFEKAGPIWDLRLMMDPLSGQNRGYAFITFCGKEAAQEAVKLCDSYEIRPGKHLGVCISVANNRLFVGSIPKNKTKENILEEFSKVTEGLVDVILYHQPDDKKKNRGFCFLEYEDHKSAAQARRRLMSGKVKVWGNVVTVEWADPVEEPDPEVMAKVKVLFVRNLATTVTEEILEKSFSEFGKLERVKKLKDYAFVHFEDRGAAVKAMDEMNGKEIEGEEIEIVLAKPPDKKRKERQAARQASRSTAYEDYYYHPPPRMPPPIRGRGRGGGRGGYGYPPDYYGYEDYYDDYYGYDYHDYRGGYEDPYYGYDDGYAVRGRGGGRGGRGAPPPPRGRGAPPPRGRAGYSQRGAPLGPPRGSRGGRGGPAQQQRGRGSRGSRGNRGGNVGGKRKADGYNQPDSKRRQTNNQQNWGSQPIAQQPLQQGGDYSGNYGYNNDNQEFYQDTYGQQWK
On to B3, for which the binding result with DJ-1 C106A and with DJ-1 C106DD was “binds” throughout.

B4: splicing regulatory glutamine lysine rich protein 1 (protein, UniProt Q8WXA9 1-508)
chain: MTSLMPGAGLLPIPTPNPLTTLGVSLSSLGAIPAAALDPNIATLGEIPQPPLMGNVDPSKIDEIRRTVYVGNLNSQTTTADQLLEFFKQVGEVKFVRMAGDETQPTRFAFVEFADQNSVPRALAFNGVMFGDRPLKINHSNNAIVKPPEMTPQAAAKELEEVMKRVREAQSFISAAIEPESGKSNERKGGRSRSHTRSKSRSSSKSHSRRKRSQSKHRSRSHNRSRSRQKDRRRSKSPHKKRSKSRERRKSRSRSHSRDKRKDTREKIKEKERVKEKDREKEREREKEREKEKERGKNKDRDKEREKDREKDKEKDREREREKEHEKDRDKEKEKEQDKEKEREKDRSKEIDEKRKKDKKSRTPPRSYNASRRSRSSSRERRRRRSRSSSRSPRTSKTIKRKSSRSPSPRSRNKKDKKREKERDHISERRERERSTSMRKSSNDRDGKEKLEKNSTSLKEKEHNKEPDSSVSKEVDDKDAPRTEENKIQHNGNCQLNEENLSTKTEAV
Turning to B4, in experiment [1], the binding entry is “binds”.

B5: hnRNP A0 (protein, UniProt Q13151 1-305)
chain: MENSQLCKLFIGGLNVQTSESGLRGHFEAFGTLTDCVVVVNPQTKRSRCFGFVTYSNVEEADAAMAASPHAVDGNTVELKRAVSREDSARPGAHAKVKKLFVGGLKGDVAEGDLIEHFSQFGTVEKAEIIADKQSGKKRGFGFVYFQNHDAADKAAVVKFHPIQGHRVEVKKAVPKEDIYSGGGGGGSRSSRGGRGGRGRGGGRDQNGLSKGGGGGYNSYGGYGGGGGGGYNAYGGGGGGSSYGGSDYGNGFGGFGSYSQHQSSYGPMKSGGGGGGGGSSWGGRSNSGPYRGGYGGGGGYGGSSF
For the molecule B5, the binding entry with DJ-1 C106A and with DJ-1 C106DD was “binds” in each case.
